Results are given in words; binding and its absence hold for the method and conditions named. Binding seen in cells or lysates may run through a third protein. Some binding calls cover weakened binding; strength is not graded here.
T1: porcine cGAS (porcine) (UniProt I3LM39)
T1 sequence: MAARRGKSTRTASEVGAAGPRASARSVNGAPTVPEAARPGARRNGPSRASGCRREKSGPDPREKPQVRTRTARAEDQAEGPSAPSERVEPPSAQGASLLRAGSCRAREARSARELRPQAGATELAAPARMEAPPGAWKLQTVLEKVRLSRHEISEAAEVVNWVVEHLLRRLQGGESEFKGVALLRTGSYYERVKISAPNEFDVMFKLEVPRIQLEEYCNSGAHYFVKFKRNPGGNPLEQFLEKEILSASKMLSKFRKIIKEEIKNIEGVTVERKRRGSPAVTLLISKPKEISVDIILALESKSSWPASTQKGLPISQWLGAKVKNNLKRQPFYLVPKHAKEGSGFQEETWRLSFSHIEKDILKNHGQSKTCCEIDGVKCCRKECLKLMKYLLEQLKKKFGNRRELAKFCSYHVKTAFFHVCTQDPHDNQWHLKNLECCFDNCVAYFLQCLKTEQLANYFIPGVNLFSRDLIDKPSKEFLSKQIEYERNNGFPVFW

Chains of the proteins cited; added tags and fusions are not shown.
UniProt B8XX90: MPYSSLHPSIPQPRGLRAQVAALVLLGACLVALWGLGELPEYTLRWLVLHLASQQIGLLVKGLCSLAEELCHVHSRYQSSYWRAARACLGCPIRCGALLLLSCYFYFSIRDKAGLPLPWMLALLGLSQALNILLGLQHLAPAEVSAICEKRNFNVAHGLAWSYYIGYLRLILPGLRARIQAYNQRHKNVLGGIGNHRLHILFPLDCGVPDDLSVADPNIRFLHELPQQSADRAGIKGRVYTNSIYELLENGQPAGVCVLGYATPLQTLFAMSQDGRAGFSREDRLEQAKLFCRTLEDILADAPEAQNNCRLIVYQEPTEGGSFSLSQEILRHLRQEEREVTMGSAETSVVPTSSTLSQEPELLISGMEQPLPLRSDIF


What was measured:
porcine cGAS (porcine) = biological target: T1, porcine cGAS (porcine); test: co-IP; 293T cells co-transfected with pcGAS and pSTING without or with 0.5 or 1.0 ug porcine IFI16; RIPA lysate; IP with anti-FLAG antibody; Western blot
[1] = biological target: porcine STING (GFP-STING fusion protein) (porcine) (UniProt B8XX90); test: co-IP; 293T cells co-transfected with pcGAS and pSTING (0.5 ug each) for 48 h; RIPA lysate; IP with anti-GFP antibody overnight at 4 C, Protein A/G agarose; Western blot
[2] = biological target: porcine STING (GFP-STING fusion protein) (porcine) (UniProt B8XX90); test: co-IP; 293T cells co-transfected with pcGAS and pSTING without or with 0.5 or 1.0 ug porcine IFI16; RIPA lysate; IP with anti-GFP antibody; Western blot

binding (porcine cGAS (porcine))	binding [1]	binding [2]	Molecule
binds			porcine STING (GFP-STING fusion protein) (from UniProt B8XX90 1-378)
	binds	binds	porcine cGAS (protein, UniProt I3LM39 1-495) MAARRGKSTRTASEVGAAGPRASARSVNGAPTVPEAARPGARRNGPSRASGCRREKSGPDPREKPQVRTRTARAEDQAEGPSAPSERVEPPSAQGASLLRAGSCRAREARSARELRPQAGATELAAPARMEAPPGAWKLQTVLEKVRLSRHEISEAAEVVNWVVEHLLRRLQGGESEFKGVALLRTGSYYERVKISAPNEFDVMFKLEVPRIQLEEYCNSGAHYFVKFKRNPGGNPLEQFLEKEILSASKMLSKFRKIIKEEIKNIEGVTVERKRRGSPAVTLLISKPKEISVDIILALESKSSWPASTQKGLPISQWLGAKVKNNLKRQPFYLVPKHAKEGSGFQEETWRLSFSHIEKDILKNHGQSKTCCEIDGVKCCRKECLKLMKYLLEQLKKKFGNRRELAKFCSYHVKTAFFHVCTQDPHDNQWHLKNLECCFDNCVAYFLQCLKTEQLANYFIPGVNLFSRDLIDKPSKEFLSKQIEYERNNGFPVFW

Reference: publication PMC7456882
